According to paper PMC10906075:
Construct, isoform or probe ends are uncertain for at least one entry. The direction of at least one scale is not stated here.

Target: Dynorphin A (Dyn) (UniProt P01213)
Assay: OWLS
Conditions: 1x PBS, almost full unbinding on rinse; thiol for surface coupling (end not stated); OWLS: 1x PBS; nanopore: PBS (~150 mM salt), 0.5-1.5 V; folded or branched DNA

For “CGACGAGGCTGGATGCATTCGCCGGATGTTCGATGTCG [phenylalanine aptamer]”, the binding signal (ng/cm2 adsorbed mass) was 52.
